We go through one substance from PMC4266902, “Néstor-Guillermo Progeria Syndrome: a biochemical insight into Barrier-to-Autointegration Factor 1, alanine 12 threonine mutation” (BMC Molecular Biology, 2014).

No constants are given. Whether binding was seen depends on the method and setting. In cells and extracts the contact can be indirect. Binding calls can cover weak binding; strength is not graded here. Sequences can lack the tags named with a protein.

This assay deals with T1, 3x FLAG-tagged wild type BANF1 (human) (UniProt O75531).
T1 sequence: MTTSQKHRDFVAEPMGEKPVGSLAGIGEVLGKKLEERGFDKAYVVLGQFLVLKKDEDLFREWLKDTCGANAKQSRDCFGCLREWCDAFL
Nature of the assay: co-IP; HeLa cells transfected for 24 h; total protein extract treated with Benzonase to degrade genomic DNA; 3x FLAG BANF1 immunoprecipitated with M2 magnetic FLAG beads; eluent blotted for Lamin, Emerin and Histone H3.

Regarding Lamin (human (endogenous in HeLa)), the binding result was “binds”.
